From paper PMC4202173
These are yes or no findings as the source states them, for the method shown. In cells and extracts the contact can be indirect. Binding calls can cover weak binding; strength is not graded here. One block for each substance: values may come before it.

The chains behind the UniProt entries cited, without tags or fusion partners. Where a name states a change or a piece, a line headed by the entry shows the natural chain unless it says otherwise.
UniProt Q96RK0: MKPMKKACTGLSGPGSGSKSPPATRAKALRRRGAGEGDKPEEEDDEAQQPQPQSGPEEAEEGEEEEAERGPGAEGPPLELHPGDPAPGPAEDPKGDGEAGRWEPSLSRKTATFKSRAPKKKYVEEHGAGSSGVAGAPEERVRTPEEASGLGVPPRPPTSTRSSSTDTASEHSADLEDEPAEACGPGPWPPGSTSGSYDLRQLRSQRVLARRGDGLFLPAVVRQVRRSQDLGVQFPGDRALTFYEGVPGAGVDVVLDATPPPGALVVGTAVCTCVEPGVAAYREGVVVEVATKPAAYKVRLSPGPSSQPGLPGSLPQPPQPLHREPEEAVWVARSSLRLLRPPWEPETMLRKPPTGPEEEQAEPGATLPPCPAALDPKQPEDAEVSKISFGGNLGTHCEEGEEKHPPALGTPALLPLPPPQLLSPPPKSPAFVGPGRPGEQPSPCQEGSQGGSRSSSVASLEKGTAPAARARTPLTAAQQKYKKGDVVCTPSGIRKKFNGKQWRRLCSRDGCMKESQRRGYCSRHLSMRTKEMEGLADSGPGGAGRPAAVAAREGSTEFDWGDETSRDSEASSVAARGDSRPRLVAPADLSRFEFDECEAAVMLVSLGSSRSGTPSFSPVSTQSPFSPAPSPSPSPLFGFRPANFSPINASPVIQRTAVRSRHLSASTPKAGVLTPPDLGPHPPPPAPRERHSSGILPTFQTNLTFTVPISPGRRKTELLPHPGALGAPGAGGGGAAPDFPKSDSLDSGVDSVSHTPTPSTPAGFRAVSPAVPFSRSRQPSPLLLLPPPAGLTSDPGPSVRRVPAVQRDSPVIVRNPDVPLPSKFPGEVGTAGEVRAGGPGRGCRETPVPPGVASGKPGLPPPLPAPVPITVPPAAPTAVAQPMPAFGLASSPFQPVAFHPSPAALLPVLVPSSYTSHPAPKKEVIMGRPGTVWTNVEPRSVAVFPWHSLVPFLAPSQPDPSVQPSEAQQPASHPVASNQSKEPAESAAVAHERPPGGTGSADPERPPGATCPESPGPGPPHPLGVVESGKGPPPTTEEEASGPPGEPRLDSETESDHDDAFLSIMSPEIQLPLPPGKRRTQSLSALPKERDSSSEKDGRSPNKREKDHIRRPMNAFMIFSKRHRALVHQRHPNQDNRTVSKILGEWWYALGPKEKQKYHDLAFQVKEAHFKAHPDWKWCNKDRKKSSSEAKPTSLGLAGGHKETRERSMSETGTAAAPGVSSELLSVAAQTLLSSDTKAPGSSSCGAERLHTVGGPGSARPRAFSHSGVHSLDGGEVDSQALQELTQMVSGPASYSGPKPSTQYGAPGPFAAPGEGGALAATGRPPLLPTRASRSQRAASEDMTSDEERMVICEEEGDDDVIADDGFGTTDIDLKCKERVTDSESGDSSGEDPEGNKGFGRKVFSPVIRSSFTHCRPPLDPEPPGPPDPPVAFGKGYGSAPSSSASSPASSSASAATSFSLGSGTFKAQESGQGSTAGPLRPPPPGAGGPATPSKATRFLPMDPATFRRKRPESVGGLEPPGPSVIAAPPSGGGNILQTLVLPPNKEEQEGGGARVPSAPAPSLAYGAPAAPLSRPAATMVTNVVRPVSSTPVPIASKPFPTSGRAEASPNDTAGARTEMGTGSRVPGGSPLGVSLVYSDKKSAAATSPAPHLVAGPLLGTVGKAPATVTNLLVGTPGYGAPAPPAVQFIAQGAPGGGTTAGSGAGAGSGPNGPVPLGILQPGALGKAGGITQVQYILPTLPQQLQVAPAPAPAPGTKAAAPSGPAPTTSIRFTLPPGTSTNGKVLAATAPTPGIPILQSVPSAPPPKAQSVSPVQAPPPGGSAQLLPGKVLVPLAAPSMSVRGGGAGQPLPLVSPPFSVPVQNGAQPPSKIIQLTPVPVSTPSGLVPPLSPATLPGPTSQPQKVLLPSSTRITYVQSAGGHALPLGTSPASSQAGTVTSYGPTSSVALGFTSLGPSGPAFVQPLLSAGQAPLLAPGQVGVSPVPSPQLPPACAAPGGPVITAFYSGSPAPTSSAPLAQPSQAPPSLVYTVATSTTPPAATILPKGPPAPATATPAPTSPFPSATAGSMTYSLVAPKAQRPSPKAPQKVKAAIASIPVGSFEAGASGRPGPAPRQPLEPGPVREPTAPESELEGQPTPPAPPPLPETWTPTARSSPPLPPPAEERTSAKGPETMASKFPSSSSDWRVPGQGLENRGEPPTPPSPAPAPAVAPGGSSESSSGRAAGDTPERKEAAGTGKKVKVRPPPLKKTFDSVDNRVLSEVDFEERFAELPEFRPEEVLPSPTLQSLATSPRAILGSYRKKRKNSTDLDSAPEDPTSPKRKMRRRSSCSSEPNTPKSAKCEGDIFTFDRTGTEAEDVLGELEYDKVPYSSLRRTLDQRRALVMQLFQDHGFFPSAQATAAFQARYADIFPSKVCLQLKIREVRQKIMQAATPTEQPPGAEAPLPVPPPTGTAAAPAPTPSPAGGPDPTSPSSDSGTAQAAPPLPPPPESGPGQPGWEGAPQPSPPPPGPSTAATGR
UniProt P53396: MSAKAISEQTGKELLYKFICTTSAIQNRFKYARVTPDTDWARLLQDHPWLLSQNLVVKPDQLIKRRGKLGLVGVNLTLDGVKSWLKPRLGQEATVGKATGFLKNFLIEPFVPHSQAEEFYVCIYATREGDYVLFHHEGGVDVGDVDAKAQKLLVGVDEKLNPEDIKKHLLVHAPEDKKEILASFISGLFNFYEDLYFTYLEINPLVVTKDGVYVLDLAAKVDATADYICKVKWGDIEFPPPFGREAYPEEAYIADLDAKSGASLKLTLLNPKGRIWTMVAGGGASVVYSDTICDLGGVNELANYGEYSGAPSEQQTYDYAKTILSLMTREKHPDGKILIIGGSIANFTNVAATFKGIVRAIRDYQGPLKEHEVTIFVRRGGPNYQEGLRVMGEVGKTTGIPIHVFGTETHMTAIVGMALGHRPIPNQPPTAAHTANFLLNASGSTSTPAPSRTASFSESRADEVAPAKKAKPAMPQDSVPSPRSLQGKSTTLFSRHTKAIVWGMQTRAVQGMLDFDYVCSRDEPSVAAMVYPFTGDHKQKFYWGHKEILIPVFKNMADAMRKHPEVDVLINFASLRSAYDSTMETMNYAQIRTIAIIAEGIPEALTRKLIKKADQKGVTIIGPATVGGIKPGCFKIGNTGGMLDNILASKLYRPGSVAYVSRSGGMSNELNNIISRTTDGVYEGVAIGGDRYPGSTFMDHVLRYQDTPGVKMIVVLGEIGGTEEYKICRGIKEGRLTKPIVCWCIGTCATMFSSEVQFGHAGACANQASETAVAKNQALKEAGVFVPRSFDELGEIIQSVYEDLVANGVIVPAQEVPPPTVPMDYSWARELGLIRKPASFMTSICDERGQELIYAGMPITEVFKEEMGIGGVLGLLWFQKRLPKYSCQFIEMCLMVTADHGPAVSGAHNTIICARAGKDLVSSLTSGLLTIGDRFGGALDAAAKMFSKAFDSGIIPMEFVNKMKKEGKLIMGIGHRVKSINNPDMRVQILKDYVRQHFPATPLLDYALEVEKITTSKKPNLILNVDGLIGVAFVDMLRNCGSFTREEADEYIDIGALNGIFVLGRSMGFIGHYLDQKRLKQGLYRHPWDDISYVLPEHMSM

Key:
[1] = biological target: N-terminally FLAG fused CIC-S (human) (UniProt Q96RK0); test: co-IP; FLAG-tagged CIC (bait) and V5 tagged ACLY (prey) co-expressed in HEK293 cells; IP with anti-FLAG antibody, blots with anti-FLAG and anti-V5
[2] = biological target: endogenous Capicua short isoform (CIC-S) (human (endogenous in HEK)) (UniProt Q96RK0); test: co-IP; endogenous proteins, cytosolic (nucleus-free and mitochondria-free) HEK cell fraction; IP with anti-CIC antibody and blot for ACLY, and reciprocal IP with anti-ACLY antibody and blot for CIC-S; rabbit IgG as control
[3] = biological target: ATP-citrate synthase (ATP citrate-lyase), endogenous (human) (UniProt P53396); test: as above

binding [1]: binds
Substance: ACLY fused to a C-terminal V5 epitope (from UniProt P53396 1-1101) (enzyme)

binding [2]: binds
Substance: ATP-citrate synthase (ATP citrate-lyase), endogenous (from UniProt P53396 1-1101) (enzyme)

binding [3]: binds
Substance: endogenous Capicua short isoform (CIC-S) (from UniProt Q96RK0-2)
